From publication PMC4788435 (2016)
No constants are given. Whether binding was seen depends on the method and setting. Binding seen in cells or lysates may run through a third protein. Some results given as binding are weak or reduced against the parent protein; the word gives no strength. Tags and fused reporters may be left off the sequences shown.

Protein sequences, listed by entry. Tags and fused reporters are not part of them.
UniProt P46937: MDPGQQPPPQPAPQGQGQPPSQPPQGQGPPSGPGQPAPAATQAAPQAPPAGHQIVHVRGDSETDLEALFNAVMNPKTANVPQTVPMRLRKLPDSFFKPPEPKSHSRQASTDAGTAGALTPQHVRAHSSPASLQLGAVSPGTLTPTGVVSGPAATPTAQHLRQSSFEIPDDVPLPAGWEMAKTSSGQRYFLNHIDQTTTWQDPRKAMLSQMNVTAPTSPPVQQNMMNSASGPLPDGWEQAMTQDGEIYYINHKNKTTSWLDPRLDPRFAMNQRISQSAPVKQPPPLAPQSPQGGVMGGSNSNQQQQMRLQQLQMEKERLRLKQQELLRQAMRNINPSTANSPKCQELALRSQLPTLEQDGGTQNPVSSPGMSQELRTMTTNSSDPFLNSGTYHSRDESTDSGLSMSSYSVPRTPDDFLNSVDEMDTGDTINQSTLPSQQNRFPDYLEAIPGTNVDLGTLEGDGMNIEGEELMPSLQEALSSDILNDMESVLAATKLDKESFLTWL

What was measured:
[1] = molecular target: T1, human NEK8-GFP wild type (human) (UniProt Q86SG6); experiment: proximity ligation; in situ PLA (OLINK) on HEK293 cells co-expressing YAP-myc and NEK8-GFP WT, fixed 48 h after transfection; anti-rabbit GFP and anti-mouse Myc antibodies; probes within less than 40 nm give a signal; confocal microscopy
T1 sequence: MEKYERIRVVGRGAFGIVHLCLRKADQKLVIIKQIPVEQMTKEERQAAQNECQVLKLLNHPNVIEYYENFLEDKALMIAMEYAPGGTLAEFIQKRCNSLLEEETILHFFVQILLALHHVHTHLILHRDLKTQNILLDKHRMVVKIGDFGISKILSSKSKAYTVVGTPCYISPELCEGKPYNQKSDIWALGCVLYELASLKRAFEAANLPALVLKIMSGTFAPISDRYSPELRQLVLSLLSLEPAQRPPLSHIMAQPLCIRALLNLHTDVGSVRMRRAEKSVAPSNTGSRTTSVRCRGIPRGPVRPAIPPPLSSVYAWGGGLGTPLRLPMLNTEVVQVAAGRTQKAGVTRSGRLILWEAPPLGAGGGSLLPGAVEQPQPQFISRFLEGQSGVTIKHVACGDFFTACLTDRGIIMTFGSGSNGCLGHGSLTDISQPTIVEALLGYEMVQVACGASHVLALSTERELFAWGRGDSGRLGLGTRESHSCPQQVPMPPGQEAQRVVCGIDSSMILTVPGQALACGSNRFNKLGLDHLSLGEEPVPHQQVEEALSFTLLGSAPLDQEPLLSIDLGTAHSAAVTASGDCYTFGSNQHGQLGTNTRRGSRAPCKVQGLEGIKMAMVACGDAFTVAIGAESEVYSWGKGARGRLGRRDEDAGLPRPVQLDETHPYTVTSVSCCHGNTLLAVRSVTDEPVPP

[2] = molecular target: T1, human NEK8-GFP wild type (human); experiment: co-IP; lysates of HEK293T cells co-expressing GFP-tagged WT or mutant NEK8 and Flag-ANKS6; immunoprecipitated with an anti-GFP antibody (Miltenyi-Biotec beads protocol); western blot with GFP and Flag antibodies; Flag versus GFP band intensities quantified

YAP-myc (from UniProt P46937 1-504)
binding [1]: binds

B1: Flag-ANKS6 (protein, UniProt Q68DC2-1 1-871)
chain: MGEGGLPPAFQLLLRACDQGDTETARRLLEPGAAEPAERGAEPEAGAEPAGAEVAGPGAAAAGAVGAPVPVDCSDEAGNTALQFAAAGGHEPLVRFLLRRGASVNSRNHYGWSALMQAARFGHVSVAHLLLDHGADVNAQNRLGASVLTVASRGGHLGVVKLLLEAGAFVDHHHPSGEQLGLGGSRDEPLDITALMAAIQHGHEAVVRLLMEWGADPNHAARTVGWSPLMLAALTGRLGVAQQLVEKGANPDHLSVLEKTAFEVALDCKHRDLVDYLDPLTTVRPKTDEEKRRPDIFHALKMGNFQLVKEIADEDPSHVNLVNGDGATPLMLAAVTGQLALVQLLVERHADVDKQDSVHGWTALMQATYHGNKEIVKYLLNQGADVTLRAKNGYTAFDLVMLLNDPDTELVRLLASVCMQVNKDKGRPSHQPPLPHSKVRQPWSIPVLPDDKGGLKSWWNRMSNRFRKLKLMQTLPRGLSSNQPLPFSDEPEPALDSTMRAAPQDKTSRSALPDAAPVTKDNGPGSTRGEKEDTLLTTMLRNGAPLTRLPSDKLKAVIPPFLPPSSFELWSSDRSRTRHNGKADPMKTALPQRASRGHPVGGGGTDTTPVRPVKFPSLPRSPASSANSGNFNHSPHSSGGSSGVGVSRHGGELLNRSGGSIDNVLSQIAAQRKKAAGLLEQKPSHRSSPVGPAPGSSPSELPASPAGGSAPVGKKLETSKRPPSGTSTTSKSTSPTLTPSPSPKGHTAESSVSSSSSHRQSKSSGGSSSGTITDEDELTGILKKLSLEKYQPIFEEQEVDMEAFLTLTDGDLKELGIKTDGSRQQILAAISELNAGKGRERQILQETIHNFHSSFESSASNTRAPGNSPCA
binding [2]: binds
